Converted amounts (≈) assume the structure as drawn.
Legend:
[1] = test system: MRSA USA300; assay: Library hits: MIC/MBC against MRSA; format: cell-based; details: Staphylococcus aureus
[2] = test system: vancomycin resistant E. faecium ATCC 700221 (VRE); assay: Library hits: MIC/MBC against VRE; format: cell-based

MIC [1]: 2 µM (≈ 0.858 µg/mL)
MIC [2]: > 16 µM
Compound: Clc1ccc(CO/N=C(\Cn2ccnc2)c2ccc(Cl)cc2Cl)c(Cl)c1 [Oxiconazole]
